Results reported in ChEMBL document CHEMBL1201862, “PubChem BioAssay data set” (2004).
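Protocol summary: plate cells (96-well), add compound at 5 concentrations, incubate 48 h, interpolate endpoints linearly. GI50 is the concentration that inhibits growth by half.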 Calls of active or inactive are those of the source. Cut-off read from the data, not from the text of the source: active = GI50 up to about 1.1 µM and inactive = higher.

Key:
M14 = experiment: DTP human tumour cell line panel, 48 h
SK-MEL-5 = experiment: DTP human tumour cell line panel, 48 h

CN[C@H]1C[C@@H]2O[C@@](C)([C@H]1OC)n1c3ccccc3c3c4c(c5c6ccccc6n2c5c31)C(=O)NC4
GI50 (M14): active: 9.89 nM
GI50 (SK-MEL-5): active: 11.1 nM
